From publication PMC11026729
Results are given in words; binding and its absence hold for the method and conditions named. Binding seen in cells or lysates may run through a third protein. Some binding calls cover weakened binding; strength is not graded here.

By UniProt entry, the sequences of proteins in these tests, tags left out. Where a name states a change or a piece, a line headed by the entry shows the natural chain unless it says otherwise. Chains listed by the source or under a name are the forms on record and can include a tag or linker. Residues count along the entry.
UniProt Q9BXM7, residues 78-581: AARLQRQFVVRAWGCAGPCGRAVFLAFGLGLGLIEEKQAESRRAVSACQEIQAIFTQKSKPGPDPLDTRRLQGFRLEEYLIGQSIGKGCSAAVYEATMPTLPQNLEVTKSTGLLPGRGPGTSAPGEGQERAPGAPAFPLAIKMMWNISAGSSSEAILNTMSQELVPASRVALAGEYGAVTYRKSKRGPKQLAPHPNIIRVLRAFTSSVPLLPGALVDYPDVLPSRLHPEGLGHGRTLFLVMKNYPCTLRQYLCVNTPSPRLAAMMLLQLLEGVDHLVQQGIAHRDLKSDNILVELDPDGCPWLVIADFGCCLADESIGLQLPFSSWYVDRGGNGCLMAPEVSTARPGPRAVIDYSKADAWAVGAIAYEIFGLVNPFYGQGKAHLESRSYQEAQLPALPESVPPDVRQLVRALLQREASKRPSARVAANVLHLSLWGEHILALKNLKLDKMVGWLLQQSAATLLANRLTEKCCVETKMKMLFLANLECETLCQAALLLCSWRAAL
endogenous FBW7β of SH-SY5Y cells (Q969H0-2, form named): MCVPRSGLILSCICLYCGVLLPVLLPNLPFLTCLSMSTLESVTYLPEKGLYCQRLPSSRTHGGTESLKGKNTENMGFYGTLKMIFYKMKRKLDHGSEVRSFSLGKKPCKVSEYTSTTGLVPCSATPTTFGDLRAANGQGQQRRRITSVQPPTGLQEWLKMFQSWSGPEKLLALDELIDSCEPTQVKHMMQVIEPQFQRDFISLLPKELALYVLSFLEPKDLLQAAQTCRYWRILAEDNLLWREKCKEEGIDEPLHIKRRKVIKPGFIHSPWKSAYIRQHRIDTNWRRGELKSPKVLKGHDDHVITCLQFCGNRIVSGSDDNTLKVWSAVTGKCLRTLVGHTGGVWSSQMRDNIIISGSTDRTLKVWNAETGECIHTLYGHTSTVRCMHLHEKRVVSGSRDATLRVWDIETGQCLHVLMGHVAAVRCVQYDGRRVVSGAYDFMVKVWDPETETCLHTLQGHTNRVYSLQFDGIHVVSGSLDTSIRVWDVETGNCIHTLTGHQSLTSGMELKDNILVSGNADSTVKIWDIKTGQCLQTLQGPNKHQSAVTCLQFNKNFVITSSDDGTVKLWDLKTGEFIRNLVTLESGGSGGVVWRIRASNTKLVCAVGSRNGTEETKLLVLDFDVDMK
FLAG-tagged FBW7γ (F-box and WD repeat domain-containing 7, gamma isoform) (Q969H0-4, form named): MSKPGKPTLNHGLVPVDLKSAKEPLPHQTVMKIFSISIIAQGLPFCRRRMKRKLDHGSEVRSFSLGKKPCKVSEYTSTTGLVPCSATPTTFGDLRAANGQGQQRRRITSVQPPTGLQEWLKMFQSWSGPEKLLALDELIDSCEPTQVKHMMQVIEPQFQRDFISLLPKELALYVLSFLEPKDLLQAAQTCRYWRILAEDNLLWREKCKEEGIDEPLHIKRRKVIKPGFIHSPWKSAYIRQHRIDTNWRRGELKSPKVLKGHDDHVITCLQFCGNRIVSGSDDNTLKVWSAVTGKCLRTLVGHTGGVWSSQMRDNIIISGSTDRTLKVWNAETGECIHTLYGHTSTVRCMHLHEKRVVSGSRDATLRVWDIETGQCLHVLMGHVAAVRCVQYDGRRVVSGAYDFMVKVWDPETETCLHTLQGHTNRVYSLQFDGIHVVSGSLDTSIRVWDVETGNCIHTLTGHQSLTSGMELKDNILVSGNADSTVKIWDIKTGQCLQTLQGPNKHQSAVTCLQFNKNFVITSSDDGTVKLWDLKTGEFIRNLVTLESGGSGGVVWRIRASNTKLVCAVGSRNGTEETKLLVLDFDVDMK

Columns and labels:
[1] = molecular target: Myc-tagged human WT PINK1 (PTEN-induced kinase 1) (human) (UniProt Q9BXM7); assay: co-IP; HEK293 cells co-transfected for 24 h with PINK1-Myc and one FLAG-FBW7 isoform; total lysates (50 mM Tris pH 7.5, 150 mM NaCl, 1.0% Nonidet P-40, 10% glycerol) immunoprecipitated with anti-PINK1 antibody overnight at 4 °C, then immunoblotted
[2] = molecular target: endogenous PINK1 (PTEN-induced kinase 1) of SH-SY5Y cells (human (endogenous in SH-SY5Y)) (UniProt Q9BXM7); assay: co-IP; SH-SY5Y cells transfected with FLAG-FBW7β for 48 h, then 20 μM MG132 for 4 h; lysates immunoprecipitated with anti-PINK1 antibody (endogenous PINK1), preimmune IgG as negative control, then immunoblotted
[3] = molecular target: endogenous PINK1 (PTEN-induced kinase 1) of SH-SY5Y cells (human (endogenous in SH-SY5Y)) (UniProt Q9BXM7); assay: proximity ligation; Duolink PLA kit in SH-SY5Y cells with primary antibodies against endogenous PINK1 and FBW7β

Substance | binding [1] | further results
FLAG-tagged FBW7β, transiently overexpressed in SH-SY5Y cells (from UniProt Q969H0-2 1-627) |  | binding [2]: binds
FLAG-tagged FBW7γ (F-box and WD repeat domain-containing 7, gamma isoform) (from UniProt Q969H0-4 1-589) | binds | 
endogenous FBW7β of SH-SY5Y cells (from UniProt Q969H0-2 1-627) |  | binding [3]: binds

The next lines start with results.

binding [1] | Substance | further results
binds | FLAG-tagged FBW7α (F-box and WD repeat domain-containing 7, alpha isoform) (from UniProt Q969H0-1 1-707) | 
binds | FLAG-tagged FBW7β (F-box and WD repeat domain-containing 7, beta isoform), expressed in HEK293 (from UniProt Q969H0-2 1-627) | 
